Measured values: PMC3787020
Results are given in words; binding and its absence hold for the method and conditions named. Binding seen in cells or lysates may run through a third protein.

Sequences of proteins named here, by UniProt entry; tags and fusion partners are left off. Residues count along the entry.
UniProt Q14392, residues 20-662: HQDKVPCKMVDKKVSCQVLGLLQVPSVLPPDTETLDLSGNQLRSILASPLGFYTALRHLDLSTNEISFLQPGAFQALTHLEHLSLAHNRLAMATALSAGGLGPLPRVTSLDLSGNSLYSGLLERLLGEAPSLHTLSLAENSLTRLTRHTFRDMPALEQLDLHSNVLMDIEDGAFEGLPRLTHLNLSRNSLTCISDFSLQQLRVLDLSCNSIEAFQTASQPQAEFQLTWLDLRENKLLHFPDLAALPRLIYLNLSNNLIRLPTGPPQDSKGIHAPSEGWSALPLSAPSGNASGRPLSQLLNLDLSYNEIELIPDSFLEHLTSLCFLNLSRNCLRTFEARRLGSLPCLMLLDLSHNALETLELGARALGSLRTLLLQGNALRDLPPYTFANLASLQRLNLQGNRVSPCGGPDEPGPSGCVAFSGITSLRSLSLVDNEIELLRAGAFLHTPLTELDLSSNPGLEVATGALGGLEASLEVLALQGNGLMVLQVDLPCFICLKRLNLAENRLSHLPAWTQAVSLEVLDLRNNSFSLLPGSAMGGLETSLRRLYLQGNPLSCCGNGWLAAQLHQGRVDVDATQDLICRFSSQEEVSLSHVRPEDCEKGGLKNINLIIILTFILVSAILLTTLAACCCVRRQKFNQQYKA
UniProt P09958, residues 108-794: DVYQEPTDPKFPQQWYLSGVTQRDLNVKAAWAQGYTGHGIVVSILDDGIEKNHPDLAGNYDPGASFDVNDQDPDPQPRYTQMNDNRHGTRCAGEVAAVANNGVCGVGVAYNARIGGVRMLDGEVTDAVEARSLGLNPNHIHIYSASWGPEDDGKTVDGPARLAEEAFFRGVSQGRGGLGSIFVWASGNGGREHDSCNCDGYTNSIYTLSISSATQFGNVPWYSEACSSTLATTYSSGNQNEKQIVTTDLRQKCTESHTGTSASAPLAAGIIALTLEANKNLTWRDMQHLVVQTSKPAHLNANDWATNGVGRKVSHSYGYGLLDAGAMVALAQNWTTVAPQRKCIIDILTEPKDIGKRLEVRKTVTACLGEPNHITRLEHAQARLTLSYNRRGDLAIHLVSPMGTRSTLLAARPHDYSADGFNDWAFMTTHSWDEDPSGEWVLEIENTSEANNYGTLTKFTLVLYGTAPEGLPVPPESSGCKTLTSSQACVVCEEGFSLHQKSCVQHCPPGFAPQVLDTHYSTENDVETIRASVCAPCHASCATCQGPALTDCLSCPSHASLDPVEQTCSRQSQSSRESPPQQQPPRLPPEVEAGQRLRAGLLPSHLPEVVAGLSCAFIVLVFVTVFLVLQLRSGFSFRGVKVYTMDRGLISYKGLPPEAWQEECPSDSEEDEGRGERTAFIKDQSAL

Target: GARP (human), lentivirally transduced into human T cells (human) (UniProt Q14392)
Experiment: co-IP; lysates of cells described in Figure 2 immunoprecipitated with anti-GARP or anti-FURIN antibodies; WB with anti-GARP, anti-TGF-β or anti-FURIN antibodies

binding: no binding
Substance: FURIN (pro-protein convertase) (from UniProt P09958 108-794) (enzyme)
